Measured values taken from the supplement of paper PMC6658780.
Where a name gives a salt, the structure may show the parent alone. ± gives the standard deviation of the averaged measurements. The list shows a part of the results. Repeats in this data set agree poorly, so a single value says little.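 Clinical A. baumannii isolates resistant to the partner antibiotic were chosen, and the screen identifies drugs restoring that antibiotic's activity. Subtracting the initial incubation reading corrects for coloured-compound background.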

tested on: Acinetobacter baumannii WP-487; test: percent growth inhibition of drug + antibiotic vs DMSO control; higher = more growth inhibition; conditions: antibiotic (0.125x MIC): colistin; 7 µM
Description: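 Prestwick drugs tested at 20 uM and 7 uM with an antibiotic at 0.125x MIC (16 mg/L when MIC >128 mg/L) in cation-adjusted Mueller-Hinton broth, 384-well plates, duplicate runs on different days. Percent growth inhibition was computed from OD600 (24 h minus 0 h) relative to DMSO-only wells. Drug + 0.1% DMSO (no antibiotic) wells are also given. Only hits (max corrected inhibition > mean + 3SD) are listed. A. baumannii: NCTC-13301 was used for MEM/CIP/GEN/TGC and WP-487 for colistin. Duplicates with colistin are strongly discordant (run 2 near 100% for most drugs).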

| Compound | percent growth inhibition |
| --- | --- |
| C=CCOC(Cn1ccnc1)c1ccc(Cl)cc1Cl (stereo not given) [Enilconazole] | 4.28 ± 1.6% |
| CN(C)CCOC1=Cc2ccccc2Sc2ccc(Cl)cc21 [Zotepine] | 1.84 ± 2.5% |
| NC[C@@H]1O[C@H](O[C@H]2[C@@H](O)[C@H](O[C@@H]3[C@@H](O)[C@H](N)C[C@H](N)[C@H]3O[C@H]3O[C@H](CO)[C@@H](O)[C@H](O)[C@H]3N)O[C@@H]2CO)[C@H](N)[C@@H](O)[C@@H]1O [Paromomycin sulfate] | 10.3 ± 3.1% |
| Cc1cc(C(C)(C)CC(C)(C)C)ccc1OCCOCC[N+](C)(C)Cc1ccccc1 [Methyl benzethonium chloride] | 58.8 ± 48% |
| Clc1ccc(C(Cn2ccnc2)OCc2ccsc2Cl)c(Cl)c1 (stereo not given) [Tioconazole] | 55.2 ± 52% |
| CCCCCCCCNC(C)C(O)c1ccc(SC(C)C)cc1 (stereo not given) [Suloctidil] | 28.5 ± 40% |
| CC[C@H]1OC(=O)[C@H](C)[C@@H](O[C@H]2C[C@@](C)(OC)[C@@H](O)[C@H](C)O2)[C@H](C)[C@@H](O[C@@H]2O[C@H](C)C[C@H](N(C)C)[C@H]2O)[C@](C)(O)C[C@@H](C)/C(=N\OCOCCOC)[C@H](C)[C@@H](O)[C@]1(C)O [Roxithromycin] | 42.9 ± 81% |
| O=C1OCCN1/N=C/c1ccc([N+](=O)[O-])o1 [Furazolidone] | 43.5 ± 54% |
| CO[C@@H]1[C@@H](O[C@@H]2O[C@H](C)[C@@H](O[C@H]3C[C@@](C)(O)[C@@H](OC(=O)CC(C)C)[C@H](C)O3)[C@H](N(C)C)[C@H]2O)[C@@H](CC=O)C[C@@H](C)[C@@H](O)/C=C/C=C/C[C@@H](C)OC(=O)C[C@H]1OC(C)=O [Josamycin] | 55.6 ± 51% |
| O=C1CCc2ccc(OCCCCN3CCN(c4cccc(Cl)c4Cl)CC3)cc2N1 [Aripiprazole] | 51.4 ± 56% |
| CC/C(=C(/CC)c1ccc(O)cc1)c1ccc(O)cc1 [Diethylstilbestrol] | -4.27 ± 6.7% |
| CCN(CC)CCOc1ccc(C(=C(Cl)c2ccccc2)c2ccccc2)cc1 [Clomiphene citrate (Z,E)] | 51 ± 57% |
| CCCCc1oc2ccccc2c1C(=O)c1cc(I)c(OCCN(CC)CC)c(I)c1 [Amiodarone hydrochloride] | 49.5 ± 58% |
| CCOC(=O)C1=C(C)NC(C)=C(C(=O)OC)C1c1cccc(Cl)c1Cl (stereo not given) [Felodipine] | -0.968 ± 9.2% |
| CC(=O)[C@@]12O[C@](C)(c3ccccc3)O[C@@H]1C[C@H]1[C@@H]3CCC4=CC(=O)CC[C@]4(C)[C@H]3CC[C@@]12C [Algestone acetophenide] | -2.57 ± 18% |
| CCCC(C(=O)OCCN(CC)CC)(c1ccccc1)c1ccccc1 [Proadifen hydrochloride] | 3.62 ± 9.9% |
| CN[C@H](CC(C)C)C(=O)N[C@H]1C(=O)N[C@@H](CC(N)=O)C(=O)N[C@H]2C(=O)N[C@H]3C(=O)N[C@H](C(=O)N[C@H](C(=O)O)c4cc(O)cc(O)c4-c4cc3ccc4O)[C@H](O)c3ccc(c(Cl)c3)Oc3cc2cc(c3O[C@@H]2O[C@H](CO)[C@@H](O)[C@H](O)[C@H]2O[C@H]2C[C@](C)(N)[C@H](O)[C@H](C)O2)Oc2ccc(cc2Cl)[C@H]1O [Vancomycin hydrochloride] | -0.434 ± 6.5% |
| CSc1nc2cc(Cl)c(Oc3cccc(Cl)c3Cl)cc2[nH]1 [Triclabendazole] | 49.5 ± 58% |
| CCCCCCCCCCCCCCCC[N+](C)(C)CCN(Cc1ccc(OC)cc1)c1ncccn1 [Thonzonium bromide] | 42.5 ± 81% |
| COc1cccc2c1C(=O)c1c(O)c3c(c(O)c1C2=O)C[C@@](O)(C(=O)CO)C[C@@H]3O[C@H]1C[C@H](N)[C@@H](O)[C@H](C)O1 [Epirubicin hydrochloride] | 3.78 ± 5.7% |

same assay, conditions: antibiotic (0.125x MIC): colistin; 20 µM

| Compound | percent growth inhibition |
| --- | --- |
| C=CCOC(Cn1ccnc1)c1ccc(Cl)cc1Cl (stereo not given) [Enilconazole] | 50.3 ± 70% |
| CN(C)CCOC1=Cc2ccccc2Sc2ccc(Cl)cc21 [Zotepine] | 55.7 ± 63% |
| NC[C@@H]1O[C@H](O[C@H]2[C@@H](O)[C@H](O[C@@H]3[C@@H](O)[C@H](N)C[C@H](N)[C@H]3O[C@H]3O[C@H](CO)[C@@H](O)[C@H](O)[C@H]3N)O[C@@H]2CO)[C@H](N)[C@@H](O)[C@@H]1O [Paromomycin sulfate] | 96.3 ± 1.5% |
| Cc1cc(C(C)(C)CC(C)(C)C)ccc1OCCOCC[N+](C)(C)Cc1ccccc1 [Methyl benzethonium chloride] | 79 ± 24% |
| Clc1ccc(C(Cn2ccnc2)OCc2ccsc2Cl)c(Cl)c1 (stereo not given) [Tioconazole] | 61.5 ± 45% |
| CCCCCCCCNC(C)C(O)c1ccc(SC(C)C)cc1 (stereo not given) [Suloctidil] | 97.6 ± 3.3% |
| CC[C@H]1OC(=O)[C@H](C)[C@@H](O[C@H]2C[C@@](C)(OC)[C@@H](O)[C@H](C)O2)[C@H](C)[C@@H](O[C@@H]2O[C@H](C)C[C@H](N(C)C)[C@H]2O)[C@](C)(O)C[C@@H](C)/C(=N\OCOCCOC)[C@H](C)[C@@H](O)[C@]1(C)O [Roxithromycin] | 53.2 ± 66% |
| O=C1OCCN1/N=C/c1ccc([N+](=O)[O-])o1 [Furazolidone] | 98.3 ± 2.4% |
| CO[C@@H]1[C@@H](O[C@@H]2O[C@H](C)[C@@H](O[C@H]3C[C@@](C)(O)[C@@H](OC(=O)CC(C)C)[C@H](C)O3)[C@H](N(C)C)[C@H]2O)[C@@H](CC=O)C[C@@H](C)[C@@H](O)/C=C/C=C/C[C@@H](C)OC(=O)C[C@H]1OC(C)=O [Josamycin] | 66.8 ± 38% |
| O=C1CCc2ccc(OCCCCN3CCN(c4cccc(Cl)c4Cl)CC3)cc2N1 [Aripiprazole] | 59.3 ± 48% |
| CC/C(=C(/CC)c1ccc(O)cc1)c1ccc(O)cc1 [Diethylstilbestrol] | 50 ± 71% |
| CCN(CC)CCOc1ccc(C(=C(Cl)c2ccccc2)c2ccccc2)cc1 [Clomiphene citrate (Z,E)] | 60.5 ± 46% |
| CCCCc1oc2ccccc2c1C(=O)c1cc(I)c(OCCN(CC)CC)c(I)c1 [Amiodarone hydrochloride] | 48 ± 60% |
| CCOC(=O)C1=C(C)NC(C)=C(C(=O)OC)C1c1cccc(Cl)c1Cl (stereo not given) [Felodipine] | 42.4 ± 62% |
| CC(=O)[C@@]12O[C@](C)(c3ccccc3)O[C@@H]1C[C@H]1[C@@H]3CCC4=CC(=O)CC[C@]4(C)[C@H]3CC[C@@]12C [Algestone acetophenide] | 43 ± 80% |
| CCCC(C(=O)OCCN(CC)CC)(c1ccccc1)c1ccccc1 [Proadifen hydrochloride] | 44.6 ± 50% |
| CN[C@H](CC(C)C)C(=O)N[C@H]1C(=O)N[C@@H](CC(N)=O)C(=O)N[C@H]2C(=O)N[C@H]3C(=O)N[C@H](C(=O)N[C@H](C(=O)O)c4cc(O)cc(O)c4-c4cc3ccc4O)[C@H](O)c3ccc(c(Cl)c3)Oc3cc2cc(c3O[C@@H]2O[C@H](CO)[C@@H](O)[C@H](O)[C@H]2O[C@H]2C[C@](C)(N)[C@H](O)[C@H](C)O2)Oc2ccc(cc2Cl)[C@H]1O [Vancomycin hydrochloride] | 53.9 ± 65% |
| CSc1nc2cc(Cl)c(Oc3cccc(Cl)c3Cl)cc2[nH]1 [Triclabendazole] | 59.9 ± 47% |
| CCCCCCCCCCCCCCCC[N+](C)(C)CCN(Cc1ccc(OC)cc1)c1ncccn1 [Thonzonium bromide] | 98.3 ± 3.9% |
| COc1cccc2c1C(=O)c1c(O)c3c(c(O)c1C2=O)C[C@@](O)(C(=O)CO)C[C@@H]3O[C@H]1C[C@H](N)[C@@H](O)[C@H](C)O1 [Epirubicin hydrochloride] | 69.1 ± 38% |
